From article PMC8801479
No constants are given. Whether binding was seen depends on the method and setting. A result given as binding can be weak or reduced; the word gives no strength.

Legend:
[1] = target: T1, anti-Müllerian hormone growth factor (AMH GF), the mature C-terminal domain (human) (UniProt P03971); assay: ELISA; c-AMH captured on anti-N-terminal mAb-N2; bound c-AMH detected with biotinylated mAb-N1 (prodomain) or mAb-C1 (GF); both purified
T1 sequence: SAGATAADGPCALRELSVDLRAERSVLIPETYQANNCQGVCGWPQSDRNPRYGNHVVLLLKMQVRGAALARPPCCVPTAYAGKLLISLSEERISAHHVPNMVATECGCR

[2] = target: T1, anti-Müllerian hormone growth factor (AMH GF), the mature C-terminal domain (human); assay: ELISA; c-AMH captured on mAb-C1, incubated with AMHR2-Fc/Fc (33 nM) or buffer for 2 h; prodomain detected with biotinylated mAb-N1; both purified
[3] = target: T1, anti-Müllerian hormone growth factor (AMH GF), the mature C-terminal domain (human); assay: ELISA; AMHR2-Fc/Fc (0.75 ug/ml) captured on goat antihuman Fc Ab coated on the plate; c-AMH or GF serially diluted, 2 to 4 h; bound AMH detected with biotinylated mAb-C1 (GF) or mAb-N1 (prodomain) and SA-HRP; data fit to the quadratic equation for a reversible association reaction; both purified

- binding [1]: binds
- binding [2]: binds
- binding [3]: binds
Substance: anti-Müllerian hormone prodomain (N-terminal prodomain of c-AMH) (human) (domain or fragment)
